In doi:10.1101/830802:
These are yes or no findings as the source states them, for the method shown. In cells and extracts the contact can be indirect. A result given as binding can be weak or reduced; the word gives no strength.

Protein sequences, listed by entry. Tags and fused reporters are not part of them. Lines headed by an entry give the natural chain unless they say otherwise; changes in a name come on top.
UniProt O75061: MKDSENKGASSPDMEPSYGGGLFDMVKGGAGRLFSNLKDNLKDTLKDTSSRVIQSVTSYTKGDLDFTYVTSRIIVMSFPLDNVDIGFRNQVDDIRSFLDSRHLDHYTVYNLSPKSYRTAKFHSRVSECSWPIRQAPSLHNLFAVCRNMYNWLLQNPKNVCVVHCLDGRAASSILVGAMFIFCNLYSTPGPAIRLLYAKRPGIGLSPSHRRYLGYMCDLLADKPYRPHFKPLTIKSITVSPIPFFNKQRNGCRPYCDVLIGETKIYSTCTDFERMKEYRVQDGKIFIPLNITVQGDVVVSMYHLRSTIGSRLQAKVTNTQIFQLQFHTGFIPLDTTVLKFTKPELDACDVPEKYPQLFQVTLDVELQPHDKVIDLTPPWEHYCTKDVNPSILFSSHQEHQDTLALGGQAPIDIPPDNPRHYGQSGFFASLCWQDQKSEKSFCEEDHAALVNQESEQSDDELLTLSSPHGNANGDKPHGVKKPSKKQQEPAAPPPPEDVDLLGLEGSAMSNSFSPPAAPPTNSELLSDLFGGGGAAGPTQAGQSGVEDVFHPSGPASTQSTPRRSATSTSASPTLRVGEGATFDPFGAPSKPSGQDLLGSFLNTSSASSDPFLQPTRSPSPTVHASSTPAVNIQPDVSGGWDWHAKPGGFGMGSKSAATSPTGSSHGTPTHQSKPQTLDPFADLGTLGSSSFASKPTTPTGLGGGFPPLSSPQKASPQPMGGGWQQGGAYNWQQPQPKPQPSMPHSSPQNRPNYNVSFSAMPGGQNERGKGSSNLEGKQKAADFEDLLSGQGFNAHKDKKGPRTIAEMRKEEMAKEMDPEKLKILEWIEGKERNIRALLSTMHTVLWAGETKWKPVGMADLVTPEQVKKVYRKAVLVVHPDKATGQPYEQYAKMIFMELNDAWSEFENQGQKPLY
UniProt Q9UJY4: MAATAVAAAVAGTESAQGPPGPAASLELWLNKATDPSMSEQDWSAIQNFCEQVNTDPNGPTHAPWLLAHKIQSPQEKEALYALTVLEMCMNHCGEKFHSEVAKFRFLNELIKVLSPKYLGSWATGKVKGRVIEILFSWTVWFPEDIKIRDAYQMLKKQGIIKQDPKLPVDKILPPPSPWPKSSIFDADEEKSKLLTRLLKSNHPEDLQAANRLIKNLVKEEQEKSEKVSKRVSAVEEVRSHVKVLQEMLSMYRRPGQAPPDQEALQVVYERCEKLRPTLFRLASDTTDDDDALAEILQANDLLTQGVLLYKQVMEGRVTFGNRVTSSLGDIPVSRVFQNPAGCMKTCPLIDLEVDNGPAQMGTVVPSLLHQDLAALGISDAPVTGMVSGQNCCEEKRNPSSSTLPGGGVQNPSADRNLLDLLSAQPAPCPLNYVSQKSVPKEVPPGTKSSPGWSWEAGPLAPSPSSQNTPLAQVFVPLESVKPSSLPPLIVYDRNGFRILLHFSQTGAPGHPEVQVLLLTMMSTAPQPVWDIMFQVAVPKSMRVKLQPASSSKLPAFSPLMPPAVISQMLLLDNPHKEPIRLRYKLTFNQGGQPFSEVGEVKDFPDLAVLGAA

Target: recombinant 3xFlag-WT Auxilin (UniProt O75061)
Test: pull-down

## recombinant GST-GGA2 (from UniProt Q9UJY4 1-613)
  binding: binds
